According to paper doi:10.1101/681668 (bioRxiv, 2019):
Results are given in words; binding and its absence hold for the method and conditions named. Sequences can lack the tags named with a protein.

The chains behind the UniProt entries cited, without tags or fusion partners.
UniProt P62136: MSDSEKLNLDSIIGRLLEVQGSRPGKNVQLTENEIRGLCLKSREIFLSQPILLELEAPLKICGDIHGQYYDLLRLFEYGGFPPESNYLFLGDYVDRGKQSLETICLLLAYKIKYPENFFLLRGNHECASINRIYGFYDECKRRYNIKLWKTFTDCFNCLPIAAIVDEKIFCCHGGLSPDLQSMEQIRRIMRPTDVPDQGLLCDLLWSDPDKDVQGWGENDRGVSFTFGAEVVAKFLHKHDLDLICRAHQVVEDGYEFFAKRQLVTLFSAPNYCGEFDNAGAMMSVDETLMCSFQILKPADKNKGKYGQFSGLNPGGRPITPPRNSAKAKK

How the values were obtained:
Assay in all cases: pull-down
MBP-ORC3 (human) = target: T1, MBP-ORC3 (human) (UniProt Q9UBD5)
T1 sequence: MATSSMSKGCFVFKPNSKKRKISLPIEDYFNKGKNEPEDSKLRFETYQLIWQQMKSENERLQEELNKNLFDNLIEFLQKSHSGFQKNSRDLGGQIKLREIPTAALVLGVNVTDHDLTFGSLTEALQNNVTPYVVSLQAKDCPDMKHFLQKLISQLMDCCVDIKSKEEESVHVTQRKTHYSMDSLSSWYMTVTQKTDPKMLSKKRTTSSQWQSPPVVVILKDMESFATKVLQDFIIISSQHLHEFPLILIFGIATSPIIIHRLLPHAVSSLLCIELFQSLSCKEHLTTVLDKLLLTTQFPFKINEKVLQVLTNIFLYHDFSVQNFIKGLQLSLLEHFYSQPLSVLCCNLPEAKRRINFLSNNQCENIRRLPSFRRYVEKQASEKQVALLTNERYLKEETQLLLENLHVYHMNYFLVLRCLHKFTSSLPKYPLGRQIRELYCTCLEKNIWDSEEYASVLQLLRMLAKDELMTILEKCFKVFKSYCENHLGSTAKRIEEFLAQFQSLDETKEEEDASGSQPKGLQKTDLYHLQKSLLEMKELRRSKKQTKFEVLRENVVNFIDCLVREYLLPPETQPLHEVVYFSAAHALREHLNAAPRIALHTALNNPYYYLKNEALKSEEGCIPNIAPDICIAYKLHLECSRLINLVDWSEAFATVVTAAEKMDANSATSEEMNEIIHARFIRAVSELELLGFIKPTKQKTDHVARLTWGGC

[1] = target: T2, MBP-ORC1 Δ260-280 (human) (UniProt Q13415)
T2 sequence: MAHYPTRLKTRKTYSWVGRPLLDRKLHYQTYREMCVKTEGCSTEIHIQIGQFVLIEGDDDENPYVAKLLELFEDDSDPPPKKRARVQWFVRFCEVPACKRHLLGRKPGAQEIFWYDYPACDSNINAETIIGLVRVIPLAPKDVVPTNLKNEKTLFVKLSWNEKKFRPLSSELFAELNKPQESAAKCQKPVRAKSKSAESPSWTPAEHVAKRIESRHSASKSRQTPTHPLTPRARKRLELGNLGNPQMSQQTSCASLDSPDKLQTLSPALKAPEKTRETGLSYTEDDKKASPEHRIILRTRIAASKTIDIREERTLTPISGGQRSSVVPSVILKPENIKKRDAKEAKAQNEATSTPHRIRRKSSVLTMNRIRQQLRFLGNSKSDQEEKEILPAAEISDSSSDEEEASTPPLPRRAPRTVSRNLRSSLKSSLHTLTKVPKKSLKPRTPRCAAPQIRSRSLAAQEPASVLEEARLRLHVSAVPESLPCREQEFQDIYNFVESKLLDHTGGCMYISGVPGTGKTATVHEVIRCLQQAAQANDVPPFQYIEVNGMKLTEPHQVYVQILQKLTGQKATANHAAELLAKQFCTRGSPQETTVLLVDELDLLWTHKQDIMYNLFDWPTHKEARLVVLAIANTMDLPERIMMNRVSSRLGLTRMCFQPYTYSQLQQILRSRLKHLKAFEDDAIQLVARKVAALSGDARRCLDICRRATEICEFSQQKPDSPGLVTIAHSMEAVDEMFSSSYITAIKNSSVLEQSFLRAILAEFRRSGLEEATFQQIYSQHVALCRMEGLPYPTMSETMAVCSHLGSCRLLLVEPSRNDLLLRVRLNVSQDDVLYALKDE

MBP-ORC4 (human) = target: T3, MBP-ORC4 (human) (UniProt O43929)
T3 sequence: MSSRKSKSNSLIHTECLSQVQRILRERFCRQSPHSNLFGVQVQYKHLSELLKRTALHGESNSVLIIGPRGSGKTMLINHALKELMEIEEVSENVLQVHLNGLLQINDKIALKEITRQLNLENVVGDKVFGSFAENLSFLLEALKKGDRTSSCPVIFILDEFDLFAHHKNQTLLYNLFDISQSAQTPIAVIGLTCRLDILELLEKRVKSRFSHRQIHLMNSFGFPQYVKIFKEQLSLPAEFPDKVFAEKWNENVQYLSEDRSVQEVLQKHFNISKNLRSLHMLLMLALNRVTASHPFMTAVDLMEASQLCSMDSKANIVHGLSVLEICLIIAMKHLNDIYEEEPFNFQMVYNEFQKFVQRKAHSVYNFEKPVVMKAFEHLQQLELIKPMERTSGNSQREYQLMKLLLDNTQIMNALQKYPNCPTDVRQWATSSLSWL

MBP-ORC6 (human) = target: T4, MBP-ORC6 (human) (UniProt Q9Y5N6)
T4 sequence: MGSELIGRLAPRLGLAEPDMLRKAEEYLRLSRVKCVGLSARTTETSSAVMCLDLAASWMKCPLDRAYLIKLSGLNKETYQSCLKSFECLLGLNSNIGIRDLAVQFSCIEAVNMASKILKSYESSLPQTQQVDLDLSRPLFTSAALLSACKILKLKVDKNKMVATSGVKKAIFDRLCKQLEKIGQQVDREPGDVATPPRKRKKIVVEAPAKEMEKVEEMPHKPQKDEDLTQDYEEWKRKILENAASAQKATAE

MBP-ORC1-PP1^mut (human) = target: T5, MBP-ORC1-PP1^mut (human) (UniProt Q13415)
T5 sequence: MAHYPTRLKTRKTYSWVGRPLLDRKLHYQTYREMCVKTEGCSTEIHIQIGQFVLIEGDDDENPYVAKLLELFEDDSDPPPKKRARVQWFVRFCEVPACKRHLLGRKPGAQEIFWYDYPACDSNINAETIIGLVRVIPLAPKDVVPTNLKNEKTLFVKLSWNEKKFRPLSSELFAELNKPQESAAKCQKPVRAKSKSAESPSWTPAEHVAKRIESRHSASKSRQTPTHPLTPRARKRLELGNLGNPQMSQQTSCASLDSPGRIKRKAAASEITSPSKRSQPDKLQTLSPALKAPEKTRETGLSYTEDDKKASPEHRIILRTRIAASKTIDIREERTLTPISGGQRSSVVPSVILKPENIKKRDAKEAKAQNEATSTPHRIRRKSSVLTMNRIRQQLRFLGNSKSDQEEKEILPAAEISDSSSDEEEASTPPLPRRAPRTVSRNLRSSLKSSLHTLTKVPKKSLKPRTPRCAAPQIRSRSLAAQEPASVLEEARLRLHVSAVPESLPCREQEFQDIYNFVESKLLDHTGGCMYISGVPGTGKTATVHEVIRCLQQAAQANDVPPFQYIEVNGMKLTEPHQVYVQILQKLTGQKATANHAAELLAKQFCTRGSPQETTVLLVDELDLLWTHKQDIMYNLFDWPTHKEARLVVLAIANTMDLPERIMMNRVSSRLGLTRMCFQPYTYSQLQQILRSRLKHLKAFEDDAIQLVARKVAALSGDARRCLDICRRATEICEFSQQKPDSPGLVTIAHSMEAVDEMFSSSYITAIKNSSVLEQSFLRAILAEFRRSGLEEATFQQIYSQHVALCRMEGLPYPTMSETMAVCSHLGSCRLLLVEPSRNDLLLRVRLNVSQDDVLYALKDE

MBP-ORC5 (human) = target: T6, MBP-ORC5 (human) (UniProt O43913)
T6 sequence: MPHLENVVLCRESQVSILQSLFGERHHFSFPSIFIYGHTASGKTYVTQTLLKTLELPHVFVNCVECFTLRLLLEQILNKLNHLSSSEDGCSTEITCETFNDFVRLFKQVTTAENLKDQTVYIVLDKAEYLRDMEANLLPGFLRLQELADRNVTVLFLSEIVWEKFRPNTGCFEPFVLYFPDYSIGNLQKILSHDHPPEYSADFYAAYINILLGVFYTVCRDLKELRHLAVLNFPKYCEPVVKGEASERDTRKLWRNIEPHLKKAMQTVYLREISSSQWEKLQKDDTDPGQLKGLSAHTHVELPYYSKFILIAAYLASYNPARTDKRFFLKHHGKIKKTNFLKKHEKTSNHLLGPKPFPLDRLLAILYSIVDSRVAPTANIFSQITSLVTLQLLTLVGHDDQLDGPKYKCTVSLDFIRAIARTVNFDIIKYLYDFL

Measured: binding

GST-PP1α (from UniProt P62136 1-330) (enzyme)
no binding: all assays above
